# For at least one compound, name, drawing or mass did not settle the structure.
# Assay: Test 2: octanol/phosphate buffer partition coefficient of BPS with various cations
# Format: physicochemical
# Conditions: octanol/phosphate buffer pH 7, 37° C., BPS 240 μg/ml
# Procedure: BPS was dissolved in phosphate buffer solution having pH of 5 to 8 in a concentration of 240 μg/ml. Various cations were added to the mixtures to give equivalent charge to that of BPS or 5 times or 20 times more than that of BPS. The same volume of octanol as that of the aqueous phase was added to the mixture followed by shaking at 37° C. for an hour. After centrifugation, the concentration of the pharmaceutically active substance in the aqueous phase was measured to calculate the partition coefficient.
# partition coefficient=concentration of the pharmaceutically active substance in the octanol phase/concentration of the pharmaceutically active substance in the aqueous phase
# A variety of cations were examined with their effect if these cations would affect the partition coefficient of BPS in octanol/phosphate buffer solution (pH 7).
# The pharmaceutically active substance was dissolved in an aqueous phase in a concentration of 240 μg/ml. Various cations were added to the solution to give equal charge to that of the pharmaceutically active substance or charges 20 times more than that of the substance. Then the same procedure as in Test 1 was applied to calculate the partition coefficient.
smiles,measurement,setting,value
CCCCCCCCCCCCCCCC[n+]1ccccc1 [Cetylpyridinium chloride],"PC of BPS, Excess × 20",cation added to give charges 20 times more,1070
same,"PC of BPS, Equimolar amount",cation added to give equal charge,77.8

# Source: patent US6919372B1, “Sustained release pharmaceutical compositions” (Yamanouchi Pharmaceutical Co., Ltd., priority 1997, dated 2005)
